Where a chain is given by its changes, count along the chain named. Numbers in names are those of the source. These are yes or no findings as the source states them, for the method shown. Some results given as binding are weak or reduced against the parent protein; the word gives no strength. Sequences can lack the tags named with a protein.
T1: Myc-tagged EDEM2 (human) (UniProt Q9BV94)
T1 sequence: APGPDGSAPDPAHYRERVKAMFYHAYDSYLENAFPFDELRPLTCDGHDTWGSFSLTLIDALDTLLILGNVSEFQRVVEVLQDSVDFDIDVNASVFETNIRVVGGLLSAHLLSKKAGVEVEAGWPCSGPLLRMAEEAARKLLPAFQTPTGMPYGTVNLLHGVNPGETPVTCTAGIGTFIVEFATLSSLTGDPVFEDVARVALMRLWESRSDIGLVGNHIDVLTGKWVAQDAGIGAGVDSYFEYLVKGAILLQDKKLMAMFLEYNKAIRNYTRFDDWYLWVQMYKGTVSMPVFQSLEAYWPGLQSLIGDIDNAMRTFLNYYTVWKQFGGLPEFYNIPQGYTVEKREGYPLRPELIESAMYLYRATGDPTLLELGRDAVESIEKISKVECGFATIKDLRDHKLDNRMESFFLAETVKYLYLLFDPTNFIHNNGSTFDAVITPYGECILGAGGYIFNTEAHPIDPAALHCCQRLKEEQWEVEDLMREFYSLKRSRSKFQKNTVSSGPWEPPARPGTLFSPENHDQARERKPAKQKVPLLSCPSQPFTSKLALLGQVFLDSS

B1: 3x Flag-tagged C695S mutant of TXNDC11 (protein, UniProt Q6PKC3-2 1-958)
chain: MSECGGRGGGSSSSEDAEDEGGGGGGPAGSDCLSSSPTLATASSAGRLRRGLRGAFLMARQRPELLCGAVALGCALLLALKFTCSRAKDVIIPAKPPVSFFSLRSPVLDLFQGQLDYAEYVRRDSEVVLLFFYAPWCGQSIAARAEIEQAASRLSDQVLFVAINCWWNQGKCRKQKHFFYFPVIYLYHRSFGPIEYKGPMSAVYIEKFVRRVMKPLLYIPSQSELLDFLSNYEPGVLGYFEFSGSPQPPGYLTFFTSALHSLKKDYLGTVRFGVITNKHLAKLVSLVHSGSVYLHRHFNTSLVFPREVLNYTAENICKWALENQETLFRWLRPHGGKSLLLNNELKKGPALFLFIPFNPLAESHPLIDEITEVALEYNNCHGDQVVERLLQHLRRVDAPVLESLALEVPAQLPDPPTITASPCCNTVVLPQWHSFSRTHNVCELCVNQTSGGMKPSSVSVPQCSFFEMAAALDSFYLKEQTFYHVASDSIECSNFLTSYSPFSYYTACCRTISRGVSGFIDSEQGVFEAPTVAFSSLEKKCEVDAPSSVPHIEENRYLFPEVDMTSTNFTGLSCRTNKTLNIYLLDSNLFWLYAERLGAPSSTQVKEFAAIVDVKEESHYILDPKQALMKLTLESFIQNFSVLYSPLKRHLIGSGSAQFPSQHLITEVTTDTFWEVVLQKQDVLLLYYAPWCGFSPSLNHIFIQLARNLPMDTFTVARIDVSQNDLPWEFMVDRLPTVLFFPCNRKDLSVKYPEDVPITLPNLLRFILHHSDPASSPQNVANSPTKECLQSEAVLQRGHISHLEREIQKLRAEISSLQRAQVQVESQLSSARRDEHRLRQQQRALEEQHSLLHAHSEQLQALYEQKTRELQELARKLQELADASENLLTENTWLKILVATMERKLEGRDGAESLAAQREVHPKQPEPSATPQLPGSSPPPANVSATLVSERNKENRTD
B2: 3x Flag-tagged TXNDC11 (WT) (protein, UniProt Q6PKC3-2 1-958)
chain: B1 chain with S695C
modifications: N-glycosylated
B3: 3x Flag-tagged C692S mutant of TXNDC11 (protein, UniProt Q6PKC3-2 1-958)
chain: B1 chain with C692S, S695C

What follows are binders tested against T1, Myc-tagged EDEM2 (human) (assay: non-reducing SDS-PAGE with immunoblotting (disulfide-bonded complex); lysates of TXNDC11-KO cells transfected with 3x Flag-tagged TXNDC11 (WT or cysteine mutant) and Myc-tagged EDEM2; blots with anti-EDEM2 and anti-TXNDC11).
In the case of B1, the binding is reported as “binds”. For B2, the binding was “binds”. With B3 the binding was “no binding”.
